From the supplement of paper PMC10849652
Some of the results follow.

Amino acid sequences for entries named in this document (tags omitted). A change or cut given only in a name is not applied to a line headed by its entry.
UniProt P35325: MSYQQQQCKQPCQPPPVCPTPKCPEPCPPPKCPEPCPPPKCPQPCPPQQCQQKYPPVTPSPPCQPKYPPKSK
UniProt Q11206: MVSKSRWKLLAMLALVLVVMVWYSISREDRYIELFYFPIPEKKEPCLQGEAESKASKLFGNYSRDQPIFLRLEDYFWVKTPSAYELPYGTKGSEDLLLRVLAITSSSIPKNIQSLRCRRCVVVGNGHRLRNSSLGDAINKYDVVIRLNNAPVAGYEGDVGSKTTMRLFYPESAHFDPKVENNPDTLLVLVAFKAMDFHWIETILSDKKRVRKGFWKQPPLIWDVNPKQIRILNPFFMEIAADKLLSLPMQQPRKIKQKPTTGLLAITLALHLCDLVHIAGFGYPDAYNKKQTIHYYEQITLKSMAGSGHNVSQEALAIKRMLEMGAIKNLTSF
UniProt Q16842: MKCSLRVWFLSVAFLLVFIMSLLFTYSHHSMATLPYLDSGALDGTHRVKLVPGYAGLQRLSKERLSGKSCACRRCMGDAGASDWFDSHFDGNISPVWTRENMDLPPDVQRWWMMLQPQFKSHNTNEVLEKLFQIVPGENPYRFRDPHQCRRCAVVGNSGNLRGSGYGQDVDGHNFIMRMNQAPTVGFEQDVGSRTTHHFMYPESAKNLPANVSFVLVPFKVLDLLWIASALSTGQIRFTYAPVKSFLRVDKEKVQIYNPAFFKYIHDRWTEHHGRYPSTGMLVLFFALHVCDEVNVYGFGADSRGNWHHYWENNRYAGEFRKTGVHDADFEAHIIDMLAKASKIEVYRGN
UniProt Q76I76: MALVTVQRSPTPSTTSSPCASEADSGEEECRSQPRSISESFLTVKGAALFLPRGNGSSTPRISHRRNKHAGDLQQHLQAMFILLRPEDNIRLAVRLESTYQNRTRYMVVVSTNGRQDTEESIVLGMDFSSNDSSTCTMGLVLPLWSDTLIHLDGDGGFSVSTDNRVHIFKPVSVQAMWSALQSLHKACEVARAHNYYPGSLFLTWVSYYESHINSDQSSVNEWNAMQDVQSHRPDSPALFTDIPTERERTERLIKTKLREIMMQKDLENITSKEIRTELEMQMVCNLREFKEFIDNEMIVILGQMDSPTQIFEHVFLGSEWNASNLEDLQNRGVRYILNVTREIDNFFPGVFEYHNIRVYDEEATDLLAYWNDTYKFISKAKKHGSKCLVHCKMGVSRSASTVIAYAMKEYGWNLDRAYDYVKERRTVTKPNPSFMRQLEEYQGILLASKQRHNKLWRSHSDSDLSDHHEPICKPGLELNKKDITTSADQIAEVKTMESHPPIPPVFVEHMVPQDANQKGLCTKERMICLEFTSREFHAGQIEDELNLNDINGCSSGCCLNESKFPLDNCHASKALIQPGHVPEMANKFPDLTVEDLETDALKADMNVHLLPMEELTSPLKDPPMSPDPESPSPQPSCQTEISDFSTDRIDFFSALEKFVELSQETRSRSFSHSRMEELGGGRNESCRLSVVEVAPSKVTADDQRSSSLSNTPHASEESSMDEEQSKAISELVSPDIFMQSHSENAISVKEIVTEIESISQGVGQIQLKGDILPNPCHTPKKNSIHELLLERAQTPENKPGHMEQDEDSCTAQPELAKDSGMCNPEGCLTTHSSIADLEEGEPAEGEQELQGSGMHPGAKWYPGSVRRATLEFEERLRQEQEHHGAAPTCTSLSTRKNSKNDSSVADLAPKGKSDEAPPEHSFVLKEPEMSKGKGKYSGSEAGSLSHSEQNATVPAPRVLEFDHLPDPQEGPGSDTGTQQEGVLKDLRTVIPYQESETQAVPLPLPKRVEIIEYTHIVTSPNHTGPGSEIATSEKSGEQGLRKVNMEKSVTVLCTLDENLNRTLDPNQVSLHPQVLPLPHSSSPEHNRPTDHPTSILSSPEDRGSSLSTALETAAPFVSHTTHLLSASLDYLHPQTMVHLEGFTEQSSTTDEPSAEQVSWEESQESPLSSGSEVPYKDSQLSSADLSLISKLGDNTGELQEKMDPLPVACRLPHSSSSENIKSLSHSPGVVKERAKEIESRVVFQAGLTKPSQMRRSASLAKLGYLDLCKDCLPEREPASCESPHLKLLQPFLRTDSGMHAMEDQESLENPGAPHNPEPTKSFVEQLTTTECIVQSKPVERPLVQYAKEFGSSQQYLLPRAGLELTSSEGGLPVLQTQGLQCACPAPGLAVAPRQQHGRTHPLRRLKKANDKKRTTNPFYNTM
UniProt Q9P0W8: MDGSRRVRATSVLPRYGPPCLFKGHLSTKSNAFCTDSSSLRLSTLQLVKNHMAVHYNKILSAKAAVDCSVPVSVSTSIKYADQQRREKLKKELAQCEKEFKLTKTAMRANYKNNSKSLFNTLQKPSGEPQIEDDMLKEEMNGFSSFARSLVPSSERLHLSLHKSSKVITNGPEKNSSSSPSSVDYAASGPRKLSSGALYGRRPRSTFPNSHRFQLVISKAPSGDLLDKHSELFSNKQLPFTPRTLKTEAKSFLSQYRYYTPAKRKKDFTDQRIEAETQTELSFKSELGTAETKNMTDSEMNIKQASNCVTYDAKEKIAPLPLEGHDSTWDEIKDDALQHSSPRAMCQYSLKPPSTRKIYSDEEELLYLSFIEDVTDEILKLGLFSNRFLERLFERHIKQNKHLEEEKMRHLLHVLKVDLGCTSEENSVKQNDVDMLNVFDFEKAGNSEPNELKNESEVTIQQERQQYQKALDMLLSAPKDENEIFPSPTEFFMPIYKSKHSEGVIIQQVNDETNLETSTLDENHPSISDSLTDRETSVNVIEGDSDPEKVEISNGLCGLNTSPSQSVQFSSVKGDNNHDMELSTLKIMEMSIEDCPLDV
UniProt Q9UNL2: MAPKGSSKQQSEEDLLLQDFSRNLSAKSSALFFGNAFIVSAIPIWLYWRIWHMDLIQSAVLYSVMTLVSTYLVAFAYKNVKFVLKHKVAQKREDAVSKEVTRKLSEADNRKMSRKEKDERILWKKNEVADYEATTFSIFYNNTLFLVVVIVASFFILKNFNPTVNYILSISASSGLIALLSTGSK
UniProt Q8WVM7: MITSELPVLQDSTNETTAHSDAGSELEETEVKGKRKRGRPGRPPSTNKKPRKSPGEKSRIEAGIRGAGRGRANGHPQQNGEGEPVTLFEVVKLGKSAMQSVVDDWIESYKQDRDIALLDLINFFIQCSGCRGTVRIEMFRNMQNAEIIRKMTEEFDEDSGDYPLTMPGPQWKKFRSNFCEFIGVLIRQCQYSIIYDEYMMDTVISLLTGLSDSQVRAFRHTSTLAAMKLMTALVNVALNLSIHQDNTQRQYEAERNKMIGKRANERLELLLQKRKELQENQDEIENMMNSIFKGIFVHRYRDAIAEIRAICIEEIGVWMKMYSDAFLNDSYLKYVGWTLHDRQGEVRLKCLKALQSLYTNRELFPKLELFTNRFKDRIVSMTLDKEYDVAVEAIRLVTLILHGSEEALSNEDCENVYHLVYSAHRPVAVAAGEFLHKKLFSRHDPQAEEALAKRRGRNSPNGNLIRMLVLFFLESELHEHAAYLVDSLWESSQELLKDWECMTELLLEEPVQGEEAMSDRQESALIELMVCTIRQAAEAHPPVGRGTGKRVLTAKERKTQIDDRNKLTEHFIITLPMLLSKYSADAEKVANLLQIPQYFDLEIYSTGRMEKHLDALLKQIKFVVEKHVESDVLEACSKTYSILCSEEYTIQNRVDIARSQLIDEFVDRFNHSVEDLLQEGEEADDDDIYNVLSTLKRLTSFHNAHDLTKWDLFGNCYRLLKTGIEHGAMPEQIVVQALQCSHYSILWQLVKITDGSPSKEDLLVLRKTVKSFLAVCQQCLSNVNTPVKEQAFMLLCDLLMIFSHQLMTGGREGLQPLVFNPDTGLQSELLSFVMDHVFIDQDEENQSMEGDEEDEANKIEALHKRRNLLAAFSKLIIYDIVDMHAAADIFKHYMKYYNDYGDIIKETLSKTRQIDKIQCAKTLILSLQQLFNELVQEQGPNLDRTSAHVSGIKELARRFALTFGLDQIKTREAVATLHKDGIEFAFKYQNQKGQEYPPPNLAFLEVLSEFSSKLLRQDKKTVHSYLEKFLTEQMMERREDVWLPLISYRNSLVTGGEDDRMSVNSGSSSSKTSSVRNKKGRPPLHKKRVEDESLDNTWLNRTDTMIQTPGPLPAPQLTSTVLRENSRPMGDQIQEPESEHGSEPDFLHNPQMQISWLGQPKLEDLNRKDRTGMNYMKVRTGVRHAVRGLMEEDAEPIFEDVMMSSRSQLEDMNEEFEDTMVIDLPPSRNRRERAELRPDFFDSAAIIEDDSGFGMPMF
UniProt Q56A73: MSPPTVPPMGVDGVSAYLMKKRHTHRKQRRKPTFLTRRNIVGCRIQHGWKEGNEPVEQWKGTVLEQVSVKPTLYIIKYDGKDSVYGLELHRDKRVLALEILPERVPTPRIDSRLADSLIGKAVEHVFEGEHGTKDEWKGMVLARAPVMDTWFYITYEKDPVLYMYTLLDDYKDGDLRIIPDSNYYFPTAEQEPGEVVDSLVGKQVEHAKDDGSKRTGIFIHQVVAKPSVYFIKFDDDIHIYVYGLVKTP
UniProt Q9H040: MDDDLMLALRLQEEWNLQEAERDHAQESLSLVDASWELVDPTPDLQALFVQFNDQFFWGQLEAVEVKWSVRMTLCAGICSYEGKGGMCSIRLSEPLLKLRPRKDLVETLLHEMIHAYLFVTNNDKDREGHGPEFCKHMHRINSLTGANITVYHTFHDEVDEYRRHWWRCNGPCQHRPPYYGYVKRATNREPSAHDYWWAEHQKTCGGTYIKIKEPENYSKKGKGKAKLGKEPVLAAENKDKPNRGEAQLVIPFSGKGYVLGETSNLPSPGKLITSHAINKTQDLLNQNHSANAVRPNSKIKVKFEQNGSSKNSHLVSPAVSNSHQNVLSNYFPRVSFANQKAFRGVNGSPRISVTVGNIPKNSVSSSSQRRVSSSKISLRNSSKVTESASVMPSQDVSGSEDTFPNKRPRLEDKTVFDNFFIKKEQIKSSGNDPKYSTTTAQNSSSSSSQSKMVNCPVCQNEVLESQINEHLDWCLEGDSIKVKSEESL
UniProt Q8NCJ5: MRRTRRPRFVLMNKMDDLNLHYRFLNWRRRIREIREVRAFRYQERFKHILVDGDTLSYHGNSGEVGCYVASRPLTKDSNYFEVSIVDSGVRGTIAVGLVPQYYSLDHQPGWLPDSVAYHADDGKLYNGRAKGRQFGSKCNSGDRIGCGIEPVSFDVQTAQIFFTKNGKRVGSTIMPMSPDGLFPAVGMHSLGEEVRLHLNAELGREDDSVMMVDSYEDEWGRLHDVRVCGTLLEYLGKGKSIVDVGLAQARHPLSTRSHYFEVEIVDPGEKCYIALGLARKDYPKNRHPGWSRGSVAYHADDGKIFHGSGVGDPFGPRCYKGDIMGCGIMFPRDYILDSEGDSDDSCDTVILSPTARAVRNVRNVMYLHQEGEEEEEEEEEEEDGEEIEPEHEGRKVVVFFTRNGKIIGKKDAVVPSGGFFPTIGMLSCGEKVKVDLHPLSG
UniProt Q9ULZ2: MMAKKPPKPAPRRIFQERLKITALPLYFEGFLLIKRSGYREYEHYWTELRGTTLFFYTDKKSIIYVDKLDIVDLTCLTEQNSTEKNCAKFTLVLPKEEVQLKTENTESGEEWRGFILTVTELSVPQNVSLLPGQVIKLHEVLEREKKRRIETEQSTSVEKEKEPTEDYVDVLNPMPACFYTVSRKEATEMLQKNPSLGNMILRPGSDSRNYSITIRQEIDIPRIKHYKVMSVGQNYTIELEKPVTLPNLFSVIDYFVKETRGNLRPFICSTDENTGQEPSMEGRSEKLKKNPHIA
UniProt P42224: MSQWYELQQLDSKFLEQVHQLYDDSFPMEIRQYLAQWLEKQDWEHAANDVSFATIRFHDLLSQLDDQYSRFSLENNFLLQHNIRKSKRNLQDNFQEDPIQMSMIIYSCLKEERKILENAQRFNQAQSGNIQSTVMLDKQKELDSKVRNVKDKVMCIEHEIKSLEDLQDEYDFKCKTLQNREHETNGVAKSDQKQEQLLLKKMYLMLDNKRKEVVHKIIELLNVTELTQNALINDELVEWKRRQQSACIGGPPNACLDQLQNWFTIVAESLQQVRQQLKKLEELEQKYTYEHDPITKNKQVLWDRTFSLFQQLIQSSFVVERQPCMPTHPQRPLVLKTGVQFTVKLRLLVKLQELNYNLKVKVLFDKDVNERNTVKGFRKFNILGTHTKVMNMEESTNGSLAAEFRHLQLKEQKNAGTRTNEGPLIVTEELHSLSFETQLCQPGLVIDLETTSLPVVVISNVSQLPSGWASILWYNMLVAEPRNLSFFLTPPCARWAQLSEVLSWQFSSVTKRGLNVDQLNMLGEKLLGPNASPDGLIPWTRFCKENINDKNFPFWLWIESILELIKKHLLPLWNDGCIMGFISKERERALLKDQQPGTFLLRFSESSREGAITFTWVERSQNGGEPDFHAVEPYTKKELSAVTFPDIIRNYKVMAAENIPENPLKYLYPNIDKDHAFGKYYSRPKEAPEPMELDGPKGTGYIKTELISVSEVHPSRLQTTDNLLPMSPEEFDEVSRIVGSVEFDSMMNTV

Legend:
Assay in all cases: log2 fold change, soluble protein after heating vs DMSO (PISA); higher = thermal stabilisation; K562 lysate, 10 uM; active = over 0.2 and 3.5 SD of the protein, either way, in both replicates (recomputed)
erlotinib = compound: C#Cc1cccc(Nc2ncnc3cc(OCCOC)c(OCCOC)cc23)c1 [erlotinib]
In short: (§1)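 Log-two fold change in thermal stability relative to solvent controls is reported from duplicates. For each sample, crude K562 extract from dounce-homogenised pellets in PBS pH 7.4 with 1 mM MgCl2, at 1 mg/mL protein, was treated with 10 μM compound for 30 min. Aliquots heated for 3 min across 48°C-58°C were pooled, brought to 0.5% NP-40 at 4°C and cleared at 21,000xg for 90 min. The supernatant was quantified by TMTpro 16plex LC-MS/MS with channel sums equalised.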

[1] = compound: C1=CC(=CC=C1C2=NC3=C(N2)C=C(C=C3)C(=O)N)OC4=CC=C(C=C4)Cl
In short: as §1

[2] = compound: C1=CC2=NC=CN=C2C=C1/C=C/3\C(=O)NC(=O)S3
In short: as §1

[3] = compound: C1=CC=C(C=C1)C2=NC(=C(N2)C3=CC=NC=C3)C4=CC(=C(C=C4)Cl)O
In short: as §1

[4] = compound: C1CCN(C1)C(=O)NC2=CC=CC(=C2)NC3=NC=C(C(=N3)NCCC4=CN=CN4)Br
In short: as §1

[5] = compound: C1CN(CCC1(CC2=CC=C(C=C2)Cl)N)C3=NC=NC4=C3C=CN4
In short: as §1

IRAK-1-4 Inhibitor I = compound: C1COCCN1CCN2C3=CC=CC=C3N=C2NC(=O)C4=CC(=CC=C4)[N+](=O)[O-] [IRAK-1-4 Inhibitor I]
In short: as §1

ibrutinib = compound: C=CC(=O)N1CCC[C@@H](n2nc(-c3ccc(Oc4ccccc4)cc3)c3c(N)ncnc32)C1 [ibrutinib]
In short: as §1

[6] = compound: CC(=O)c1cnc2ccc(-c3cc(Cl)c(O)c(Cl)c3)nc2c1N[C@H]1CC[C@H](CN(C)C)CC1
In short: as §1

ralimetinib = compound: CC(C)(C)Cn1c(N)nc2ccc(-c3[nH]c(C(C)(C)C)nc3-c3ccc(F)cc3)nc21 [ralimetinib]
In short: as §1

[7] = compound: CC(C)(O)CC(=O)NCCn1ccc2ncnc(Nc3ccc(Oc4cccc(C(F)(F)F)c4)c(Cl)c3)c21
In short: as §1

[8] = compound: CC(C)C1=C2N=C(C=C(N2N=C1)NCC3=CC=CC=C3)NCCCCCCN
In short: as §1

[9] = compound: CC1=C(C=C(C=C1)NC(=O)C2=CC(=CC=C2)C(C)(C)C#N)NC3=CC4=C(C=C3)N=CN(C4=O)C
In short: as §1

[10] = compound: CC1=C(C=C(C=C1)NC(=O)C2=CC(=CC=C2)N(C)C)NC(=O)C3=CC=C(C=C3)O
In short: as §1

[11] = compound: CC1=CC=C(C=C1)SC2=C3C=C(SC3=CN=C2)C(=O)N
In short: as §1

[12] = compound: C/C(=N\NC(=O)C1=CC(=CC=C1)S(=O)(=O)N2CCOCC2)/C3=C(C=CC(=C3)Cl)O
In short: as §1

[13] = compound: C1=CC2=C(C=CC(=C2)/C=C\3/C(=O)NC(=NCC4=CC=CS4)S3)N=C1
In short: as §1

[14] = compound: C1=CC=C2C(=C1)C3=NNC4=CC=CC(=C43)C2=O
In short: as §1

[15] = compound: CC1=C(C(CC(=O)N1)C2=CC=C(C=C2)C(F)(F)F)C(=O)NC3=C(C=C4C(=C3)C=NN4)F
In short: as §1

[16] = compound: CC1=C(C2=C(C=C1)C(=O)C3=CC=CC=C3N2CCCN)C
In short: as §1

Measured: log2 fold change

SPRR2B (UniProt P35325)
inactive: erlotinib 0.019 | [1] -0.099 | [2] -0.004 | [3] 0.022 | [4] -0.244 | [5] 0.145 | IRAK-1-4 Inhibitor I 0 | ibrutinib -0.01 | [6] -0.278 | ralimetinib -0.038 | [7] -0.02 | [8] 0.167 | [9] 0.007 | [10] -0.026 | [11] -0.037

ST3GAL4 isoform 4 (UniProt Q11206)
inactive: erlotinib 0.253 | [12] -0.045 | [1] -0.234 | [13] 0.007 | [2] 0.077 | [3] -0.029 | [14] -0.076 | [4] -0.215 | [5] -0.041 | IRAK-1-4 Inhibitor I 0.041 | ibrutinib 0.344 | ralimetinib 0.053 | [7] -0.049 | [8] -0.1 | [15] 0.133 | [16] 0.017 | [9] -0.015 | [10] 0.046

ST3GAL2 (UniProt Q16842)
inactive: erlotinib -0.06 | [12] -0.017 | [1] -0.061 | [13] 0.044 | [2] -0.14 | [3] -0.06 | [14] -0.037 | [4] -0.018 | [5] 0.022 | IRAK-1-4 Inhibitor I 0.066 | ibrutinib 0.011 | [6] 0.014 | ralimetinib 0.021 | [7] -0.047 | [8] 0.057 | [16] 0.005 | [9] -0.008 | [10] -0.01 | [11] 0.069

SPG7 (UniProt Q9UQ90)
inactive: erlotinib 0.184 | [12] -0.136 | [1] -0.046 | [13] 0.011 | [2] -0.04 | [3] 0.085 | [14] 0.047 | [4] 0.009 | [5] 0.044 | IRAK-1-4 Inhibitor I -0.16 | ibrutinib 0.008 | [6] 0.156 | ralimetinib -0.014 | [7] -0.313 | [8] 0.037 | [15] 0.062 | [16] -0.005 | [9] 0.016 | [10] -0.217 | [11] 0.102

SSH2 (UniProt Q76I76)
inactive: erlotinib 0.026 | [12] -0.016 | [1] -0.019 | [13] -0.021 | [3] -0.072 | [14] 0.138 | [4] -0.336 | [5] -0.227 | IRAK-1-4 Inhibitor I -0.107 | [6] 0.13 | ralimetinib 0.126 | [7] -0.001 | [8] -0.068 | [16] 0.038 | [9] 0.075 | [10] 0.004 | [11] 0.031

SSX5 isoform 2 (UniProt O60225)
inactive: erlotinib -0.302 | [12] 0.12 | [1] -0.142 | [13] 0.195 | [2] -0.125 | [3] 0.043 | [14] -0.027 | [4] 0.23 | [5] -0.219 | IRAK-1-4 Inhibitor I 0.007 | ibrutinib -0.081 | [6] 0.028 | ralimetinib 0 | [7] 0.032 | [8] -0.261 | [15] -0.089 | [10] -0.018 | [11] -0.003

SSB (UniProt E7ERC4)
inactive: erlotinib -0.03 | [12] 0.071 | [1] -0.063 | [13] 0 | [2] 0.02 | [3] 0.015 | [14] -0.142 | [4] 0.089 | [5] 0.01 | IRAK-1-4 Inhibitor I -0.043 | ibrutinib 0.14 | [6] -0.087 | ralimetinib -0.009 | [7] -0.075 | [8] -0.046 | [15] 0.062 | [16] 0.014 | [9] 0.239 | [10] 0.093 | [11] -0.013

Two neighbouring records out of the list so far:
ST3GAL2 (UniProt Q16842)
inactive: erlotinib -0.06 | [12] -0.017 | [1] -0.061 | [13] 0.044 | [2] -0.14 | [3] -0.06 | [14] -0.037 | [4] -0.018 | [5] 0.022 | IRAK-1-4 Inhibitor I 0.066 | ibrutinib 0.011 | [6] 0.014 | ralimetinib 0.021 | [7] -0.047 | [8] 0.057 | [16] 0.005 | [9] -0.008 | [10] -0.01 | [11] 0.069

SPG7 (UniProt Q9UQ90)
inactive: erlotinib 0.184 | [12] -0.136 | [1] -0.046 | [13] 0.011 | [2] -0.04 | [3] 0.085 | [14] 0.047 | [4] 0.009 | [5] 0.044 | IRAK-1-4 Inhibitor I -0.16 | ibrutinib 0.008 | [6] 0.156 | ralimetinib -0.014 | [7] -0.313 | [8] 0.037 | [15] 0.062 | [16] -0.005 | [9] 0.016 | [10] -0.217 | [11] 0.102

(list continues)

SPG11 (UniProt Q96JI7)
inactive: erlotinib 0.05 | [12] 0.033 | [1] 0.005 | [13] -0.012 | [2] 0.333 | [3] 0.076 | [14] 0.025 | [4] -0.016 | [5] 0.019 | IRAK-1-4 Inhibitor I 0.023 | ibrutinib 0.077 | [6] 0.068 | ralimetinib 0.049 | [7] -0.024 | [8] -0.011 | [15] -0.048 | [16] -0.063 | [9] -0.061 | [10] 0.098 | [11] 0.007

SPATA7 (UniProt Q9P0W8)
inactive: erlotinib -0.068 | [12] -0.236 | [1] -0.06 | [13] 0.001 | [2] -0.065 | [14] -0.152 | [4] -0.111 | [5] 0.026 | ibrutinib -0.017 | [6] -0.029 | [8] 0.074 | [15] -0.072 | [11] -0.055

SSR3 isoform 2 (UniProt Q9UNL2)
inactive: erlotinib -0.048 | [12] 0.008 | [1] -0.057 | [13] 0.027 | [2] 0.021 | [3] -0.002 | [14] 0.089 | [4] -0.002 | [5] -0.018 | IRAK-1-4 Inhibitor I -0.163 | ibrutinib -0.004 | [6] 0.066 | ralimetinib -0.052 | [7] 0.125 | [8] 0.016 | [15] 0.006 | [16] 0.025 | [9] 0 | [10] -0.013 | [11] 0.043

STAG1 (UniProt Q8WVM7)
inactive: erlotinib 0.017 | [1] -0.054 | [2] -0.071 | [3] -0.01 | [4] -0.173 | [5] 0.149 | IRAK-1-4 Inhibitor I 0.053 | ibrutinib -0.062 | [6] -0.045 | ralimetinib -0.022 | [7] -0.059 | [8] -0.029 | [15] 0 | [16] -0.054 | [9] -0.082 | [10] -0.004 | [11] 0.014

SPC24 (UniProt K7ESQ2)
inactive: [4] 0.058 | [5] 0.077 | [9] -0.001

SPIN4 (UniProt Q56A73)
inactive: [12] 0.156 | [13] -0.201 | [14] -0.05

SPRTN (UniProt Q9H040)
inactive: [12] 0.4 | [13] -0.199 | [3] -0.085 | [14] -0.117 | [4] 0.155 | [5] -0.076 | IRAK-1-4 Inhibitor I -0.016 | ralimetinib 0.001 | [7] -0.073 | [16] 0.032 | [10] 0.067

SPRED2 (UniProt Q7Z698)
inactive: [2] -0.062 | ibrutinib 0.047 | [15] -0.041

SPTY2D1 (UniProt Q68D10)
inactive: erlotinib 0.058 | [1] -0.054 | [2] 0.192 | [3] -0.096 | IRAK-1-4 Inhibitor I 0.086 | ibrutinib -0.013 | ralimetinib -0.037 | [7] 0.055 | [8] 0.056 | [15] -0.094 | [16] -0.024 | [9] -0.04 | [10] -0.006

SPRYD3 (UniProt Q8NCJ5)
inactive: erlotinib -0.155 | [1] -0.009 | [2] -0.109 | [3] -0.043 | IRAK-1-4 Inhibitor I 0.011 | ibrutinib 0.031 | ralimetinib -0.045 | [7] 0.017 | [8] 0.051 | [9] 0.001 | [10] 0.035

STAP1 (UniProt Q9ULZ2)
inactive: erlotinib 0.027 | [1] 0.102 | [8] -0.056 | [15] -0.201 | [16] -0.121

SSBP4 (UniProt Q9BWG4)
inactive: [12] 0.127 | [13] 0.032 | [2] 0.047 | [14] -0.176 | [4] -0.017 | [5] 0.108 | ibrutinib 0.08 | [6] 0.006 | [15] 0.001 | [9] 0.006 | [11] -0.041

SRP14 (UniProt H0YLW0)
inactive: erlotinib 0.129 | [1] 0.22 | [2] -0.002 | [3] 0.12 | IRAK-1-4 Inhibitor I 0.211 | ibrutinib -0.052 | [6] -0.057 | ralimetinib -0.292 | [7] -0.362 | [8] 0.031 | [16] -0.261 | [9] 0.418 | [10] 0.061 | [11] -0.074

STAT1 isoform 2 (UniProt P42224)
inactive: [15] 0.035 | [9] -0.005

SPATA33 isoform 2 (UniProt Q96N06)
inactive: [12] -0.052 | [13] 0.031 | [2] -0.183 | [3] -0.058 | [14] 0.033 | [4] -0.031 | [5] -0.036 | IRAK-1-4 Inhibitor I 0.027 | ibrutinib 0.106 | [6] 0.167 | ralimetinib -0.154 | [7] -0.068 | [15] 0.078 | [16] -0.089 | [10] -0.045 | [11] 0.151
